Test results published in US8008232B2, “Pyrazolecarboxanilides, process for their preparation and compositions comprising them for controlling harmful fungi” (BASF Aktiengesellschaft, priority 2005, dated 2011).
Some of these results come from one statement about several compounds together.

Key:
Type in all cases: in vivo
[1] = system: Botrytis cinerea; experiment: Activity against gray mold on bell pepper leaves caused by Botrytis cinerea, protective application (also comparative experiment); details: 250 mg/l, protective spray, bell pepper seedlings, assessed visually 5 days after inoculation; untreated plants 90% infected
Protocol: The active compounds were prepared as a stock solution comprising 25 mg of active compound which was made up to 10 ml using a mixture of acetone and/or dimethyl sulfoxide and the emulsifier Uniperol® EL (wetting agent having an emulsifying and dispersing action based on ethoxylated alkylphenols) in a volume ratio of solvent/emulsifier of 99:1. The mixture was then made up to 100 ml with water. This stock solution was diluted with the solvent/emulsifier/water mixture described to give the desired concentration of active compounds.
Activity Against Gray Mold on Bell Pepper Leaves Caused by Botrytis cinerea, Protective Application
Bell pepper seedlings of the cultivar “Neusiedler Ideal Elite” were, after 2-3 leaves were well developed, sprayed to runoff point with an aqueous suspension having the concentration of active compounds stated below. The next day, the treated plants were inoculated with a spore suspension of Botrytis cinerea which comprised 1.7×10^6 spores/ml in a 2% strength aqueous biomalt solution. The test plants were then placed into a dark climatized chamber at 22-24° C. and high atmospheric humidity. After 5 days, the extent of the fungal infection on the leaves could be determined visually in %.
Comparative Experiment—Activity Against Gray Mold on Bell Pepper Leaves Caused by Botrytis cinerea, Protective Application
Compound No. 47 of Table 1 from EP-A 0 589 301 was compared to compounds 9.17 and 9.20 according to the invention from Table 9.

[2] = system: Puccinia recondita; experiment: Curative activity against brown rust on wheat caused by Puccinia recondita; details: 250 mg/l, curative spray one day after inoculation, wheat cultivar Kanzler, assessed after 7 days; untreated plants 90% infected
[3] = system: Leptosphaeria nodorum; experiment: Activity against leaf blotch on wheat caused by Leptosphaeria nodorum; details: 250 mg/l, spray one day before inoculation, wheat cultivar Kanzler, assessed after 8 days; untreated plants 60% infected

SMILES | infection [1] | infection [2] | infection [3]
CN(C(=O)c1cn(C)nc1C(F)(F)F)c1ccccc1-c1ccc(Cl)c(Cl)c1 [9.35] | at most 20% | at most 20% | 
Cc1nn(C)c(Cl)c1C(=O)Nc1ccccc1-c1cc(Cl)cc(Cl)c1 [9.4] |  | at most 20% | 
Cn1cc(C(=O)Nc2ccccc2-c2ccc(F)c(Cl)c2)c(CF)n1 [9.43] | at most 20% | at most 20% | 
Cn1cc(C(=O)Nc2ccccc2-c2cc(F)c(F)cc2F)c(C(F)F)n1 [9.13] | at most 20% | at most 20% | at most 20%
Cn1cc(C(=O)Nc2ccccc2-c2ccc(F)c(F)c2)c(C(F)(F)Cl)n1 [9.27] |  | at most 20% | at most 20%
Cn1cc(C(=O)Nc2ccccc2-c2cc(F)c(F)cc2F)c(C(F)(F)F)n1 [9.8] |  | at most 20% | 
Cn1cc(C(=O)Nc2ccccc2-c2ccc(Cl)c(Cl)c2)c(C(F)(F)Cl)n1 [9.25] |  | at most 20% | 
Cn1cc(C(=O)Nc2ccccc2-c2ccc(F)c(F)c2)c(C(F)Cl)n1 (racemic) [9.39] | at most 20% | at most 20% | 
CN(C(=O)c1cn(C)nc1C(F)(F)F)c1ccccc1-c1ccc(F)c(Cl)c1 [9.34] |  | at most 20% | 
Cn1cc(C(=O)Nc2ccccc2-c2cc(Cl)cc(Cl)c2)c(C(F)Cl)n1 (racemic) [9.40] | at most 20% | at most 20% | 
Cc1nn(C)c(Cl)c1C(=O)Nc1ccccc1-c1ccc(Cl)c(Cl)c1 [9.1] | at most 20% | at most 20% | at most 20%
Cn1cc(C(=O)Nc2ccccc2-c2ccc(Cl)c(Cl)c2)c(C(F)Cl)n1 (racemic) [9.37] | at most 20% | at most 20% | 
Cc1nn(C)c(Cl)c1C(=O)Nc1ccccc1-c1ccc(F)c(Cl)c1 [9.3] | at most 20% | at most 20% | 
Cc1nn(C)cc1C(=O)Nc1ccccc1-c1ccc(Cl)c(F)c1 [9.19] | at most 20% | at most 20% | 
Cn1nc(C(F)(F)F)c(C(=O)Nc2ccccc2-c2ccc(F)c(Cl)c2)c1F [9.30] | at most 20% |  | 
Cc1nn(C)c(Cl)c1C(=O)Nc1ccccc1-c1ccc(Cl)cc1Cl [9.2] |  |  | at most 20%
COc1cc(-c2ccccc2NC(=O)c2cn(C)nc2C(F)(F)F)c(F)cc1Cl [9.5] |  | at most 20% | 
Cn1cc(C(=O)Nc2ccccc2-c2cc(Cl)cc(Cl)c2)c(C(F)(F)Cl)n1 [9.28] |  | at most 20% | 
Cc1nn(C)cc1C(=O)Nc1ccccc1-c1ccc(Cl)cc1Cl [9.15] |  | at most 20% | 
Cn1cc(C(=O)Nc2ccccc2-c2ccc(F)c(Cl)c2)c(C(F)(F)Cl)n1 [9.26] |  | at most 20% | 

SMILES | infection [1] | infection [2] | infection [3]
Cn1cc(C(=O)Nc2ccccc2-c2ccc(Cl)cc2Cl)c(C(F)(F)Cl)n1 [9.29] |  | at most 20% | 
Cc1nn(C)cc1C(=O)Nc1ccccc1-c1cc(Cl)cc(Cl)c1 [9.18] | at most 20% | at most 20% | 
Cc1nn(C)cc1C(=O)Nc1ccccc1-c1ccc(F)c(Cl)c1 [9.17] | at most 20% | at most 20% | 
Cc1nn(C)cc1C(=O)Nc1ccccc1-c1ccc(F)cc1F [9.20] | at most 20% | at most 20% | 
Cc1cc(-c2ccccc2NC(=O)c2cn(C)nc2C(F)(F)F)c(F)cc1Cl [9.6] |  | at most 20% | 
Cn1cc(C(=O)Nc2ccccc2-c2ccc(Cl)c(Cl)c2)c(CF)n1 [9.42] | at most 20% | at most 20% | 
Cn1nc(C(F)(F)F)c(C(=O)Nc2ccccc2-c2ccc(Cl)cc2Cl)c1F [9.32] | at most 20% |  | 
Cn1cc(C(=O)Nc2ccccc2-c2cc(F)c(F)c(F)c2)c(C(F)(F)F)n1 [9.7] |  | at most 20% | 
Cc1nn(C)cc1C(=O)Nc1ccccc1-c1ccc(Cl)c(Cl)c1 [9.14] | at most 20% | at most 20% | 
Cn1nc(C(F)(F)F)c(C(=O)Nc2ccccc2-c2ccc(Cl)c(Cl)c2)c1F [9.33] | at most 20% | at most 20% | 
Cn1cc(C(=O)Nc2ccccc2-c2ccc(F)c(Cl)c2)c(C(F)Cl)n1 (racemic) [9.38] | at most 20% | at most 20% | 
Cn1cc(C(=O)Nc2ccccc2-c2ccc(F)c(F)c2)c(CF)n1 [9.44] | at most 20% | at most 20% | 
COc1cc(-c2ccccc2NC(=O)c2cn(C)nc2C(F)F)c(F)cc1Cl [9.9] |  | at most 20% | 
Cc1cc(-c2ccccc2NC(=O)c2cn(C)nc2C(F)F)c(F)cc1Cl [9.11] |  | at most 20% | 
Cn1cc(C(=O)Nc2ccccc2-c2cc(F)c(F)c(F)c2)c(C(F)F)n1 [9.12] | at most 20% | at most 20% | 
Cn1cc(C(=O)Nc2ccccc2-c2ccc(F)c(F)c2F)c(C(F)(F)F)n1 [9.10] |  | at most 20% | 
Cc1nn(C)cc1C(=O)Nc1ccccc1-c1ccc(Cl)cc1F [9.21] |  | at most 20% | 
CCN(C(=O)c1cn(C)nc1C(F)(F)F)c1ccccc1-c1ccc(Cl)c(Cl)c1 [9.36] | at most 20% | at most 20% | 
Cn1cc(C(=O)Nc2ccccc2-c2cc(Cl)cc(Cl)c2)c(CF)n1 [9.45] | at most 20% | at most 20% | 
